Data taken from paper PMC11645656, “MRGPRX4 mediates phospho-drug associated pruritus in a humanized mouse model” (Science translational medicine, 2024).
Several values for one entry are separate records, joined by “and”; a condition that tells them apart may be missing. Identical values can stand only once. The source gives many values for each of these; only a part stands here.

By UniProt entry, the sequences of proteins in these tests, tags left out.
UniProt Q96LA9, whole entry L83S/W158A: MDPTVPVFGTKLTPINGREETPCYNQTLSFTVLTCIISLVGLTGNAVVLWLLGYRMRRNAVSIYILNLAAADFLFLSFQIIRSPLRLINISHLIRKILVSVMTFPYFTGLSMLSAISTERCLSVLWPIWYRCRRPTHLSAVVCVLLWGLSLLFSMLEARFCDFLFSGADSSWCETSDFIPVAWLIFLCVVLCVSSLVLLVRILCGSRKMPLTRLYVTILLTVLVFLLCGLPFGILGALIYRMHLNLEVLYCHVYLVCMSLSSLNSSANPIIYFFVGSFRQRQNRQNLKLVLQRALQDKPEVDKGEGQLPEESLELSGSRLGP
UniProt Q96LA9, whole entry L83S/Y254A: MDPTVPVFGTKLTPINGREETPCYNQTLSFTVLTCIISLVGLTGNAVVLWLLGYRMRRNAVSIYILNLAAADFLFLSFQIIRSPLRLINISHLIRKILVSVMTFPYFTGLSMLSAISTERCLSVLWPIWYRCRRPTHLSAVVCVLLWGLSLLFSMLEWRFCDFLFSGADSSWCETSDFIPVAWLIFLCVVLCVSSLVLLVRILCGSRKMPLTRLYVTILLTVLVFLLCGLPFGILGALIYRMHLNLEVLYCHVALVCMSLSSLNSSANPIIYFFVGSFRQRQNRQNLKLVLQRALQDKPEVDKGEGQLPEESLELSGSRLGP
UniProt Q96LA9, whole entry, stated change not applied: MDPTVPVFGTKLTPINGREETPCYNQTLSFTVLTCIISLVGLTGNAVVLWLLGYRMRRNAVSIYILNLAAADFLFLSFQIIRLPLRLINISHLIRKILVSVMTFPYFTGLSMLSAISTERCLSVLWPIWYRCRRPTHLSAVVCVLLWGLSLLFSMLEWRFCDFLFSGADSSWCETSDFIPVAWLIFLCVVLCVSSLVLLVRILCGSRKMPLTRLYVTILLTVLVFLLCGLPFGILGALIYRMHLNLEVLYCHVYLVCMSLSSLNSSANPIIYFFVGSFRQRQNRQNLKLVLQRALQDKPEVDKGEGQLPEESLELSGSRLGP

Experiments:
Format in all cases: cell-based
MRGPRX4 W158A = target: T1, MRGPRX4 W158A (Homo sapiens, UniProt Q96LA9, L83S/W158A); experiment: Calcium mobilization assay (FLIPR), MRGPRX4 W158A mutant
T1 construct: expressed in transfected cells; host or cells: HEK293T, transient
Description: (§1) Fig. 3. […] (A) Cryo-EM density map of MRGPRX4-Gq in complex with fospropofol. (B) The density map of fospropofol and R82 of MRGPRX4. (C and D) Key molecular interactions between fospropofol and the hydrophilic (C) and hydrophobic (D) part of the agonist binding pocket of MRGPRX4. Amino acid residues interacting with fospropofol are shown as sticks. Hydrogen bond is shown as cyan dashed lines. […] Data are from at least three independent experiments, each performed in triplicate, and reported as the mean ± SEM. (E) and (F) were collected from the same sets of experiments.
(§2) To generate murine Mrgprs expressing cells, HEK293T cells (ATCC) were seeded on poly-D-lysine coated 96 well plate at 25,000 cells per well one day prior to transfection. HEK293T cells were transiently co-transfected with the mammalian expression plasmids carrying cDNA encoding the murine Mrgpr genes and plasmid inserted with cDNA encoding murine α-subunit of the heterotrimeric G15 protein (Gα15) in triplicates using Lipofectamine LTX reagents (Thermo Scientific). To generate WT, S83L, and alanine mutant MRGPRX4-expressing cells, HEK293T cells were seeded on poly-D-lysine coated 384 well plate at 12,000 cells per well one day prior to transfection. Mammalian expression plasmids pLX304 (vector from Addgene) carrying different MRGPRX4 coding sequences were transiently transfected into HEK293T cells in triplicates with Lipofectamine LTX reagents (Thermo Scientific). Intracellular calcium mobilization assays were performed after one day of transfection. Murine Mrgprs tested include Mrgpra1, Mrgpra2a, Mrgpra2b, Mrgpra3, Mrgpra4, Mrgpra6, Mrgpra9, Mrgpra10, Mrgpra11, Mrgpra12, Mrgpra14, Mrgprb5, Mrgprb6, Mrgprb10, Mrgprb11, and Mrgprc11. WT and mutant MRGPRX4 constructs tested include WT, S83L, R82A, R86A, R95A, W158A, Y250A, and Y254A.
(§3) To generate MRGPRX4 mutant constructs, site-directed mutagenesis was performed using Q5® Site-Directed Mutagenesis Kit (New England Biolabs). The primers were designed by the NEBaseChanger tool, with forward primers spanning designated mutated sequence corresponding to the desired amino acid substitutions. The plasmids with WT MRGPRX4 sequence served as the templates for polymerase chain reaction (PCR) amplification with Q5 high-fidelity polymerase and respective primer pairs according to the manufacturer’s conditions. Then, the linear PCR products underwent phosphorylation, ligation, and simultaneous degradation of template DNA by incubating them with a KLD enzyme mix consisting of T4 polynucleotide kinase, T4 DNA ligase, and DpnI at room temperature for 5 min. Subsequently, the mutated circular plasmids were transformed into NEB 5-alpha competent E. coli by heat-shock method, and the successfully transformed bacteria were selected on LB plates with selection antibiotics. The next day, the transformant colonies were picked, expanded in LB broth containing selection antibiotics overnight. Plasmids were isolated using QIAprep Spin Miniprep Kit (Qiagen) and subjected to sequencing to confirm the mutation.

MRGPRX4 Y254A = target: T2, MRGPRX4 Y254A (Homo sapiens, UniProt Q96LA9, L83S/Y254A); experiment: Calcium mobilization assay (FLIPR), MRGPRX4 Y254A mutant
T2 construct: expressed in transfected cells; host or cells: HEK293T, transient
Description: as §1, §2, §3

MRGPRX4 S83L (L83) = MRGPRX4 S83L (L83) (Homo sapiens, UniProt Q96LA9); experiment: PRESTO-Tango β-arrestin recruitment assay, HTLA cells stably expressing S83L MRGPRX4; settings: single replicate
Method: HTLA cells, a cell line derived from HEK293 and engineered to stably express a tTA-dependent luciferase reporter and a β-arrestin2-TEV fusion gene, were generously provided by Richard Axel's laboratory. HTLA cells were cultured in growth medium containing 2 μg/ml puromycin and 100 μg/ml hygromycin B in 5% CO2 at 37 °C. Stably MRGPRX4-expressing HTLA cells were generated by transfecting pcDNA3.1(+)-Zeo containing MRGPRX4-Tango construct (either with WT or S83L mutant sequence) into HTLA cells with Lipofectamine 3000 and selecting the successful transfected clones with Zeocin.
HTLA cells stably expressing either WT or S83L MRGPRX4 were seeded in PDL-coated 96-well white clear bottom cell culture plates with DMEM containing 10% FBS, at a density of 35,000 cells per well and were allowed to attach to the bottom of the wells overnight. The next day, growth medium was replaced with 100 μl of serum-free medium containing the tested drugs at various concentrations, and the cells were then incubated at 37°C for 24 h. On the following day, media with drug solutions was removed and 50 μl per well of Bright-Glo™ Reagent from Bright-Glo™ Luciferase Assay System (Promega) was loaded. The plate was incubated at room temperature in the dark for 5 min, and the relative luminescence units were measured using the Flexstation-3 instrument with SoftMax®Pro 7.1 software (Molecular Devices). Dose response curves and EC50s were analyzed as described above.
MRGPRX4 by β-arrestin (Tango) recruitment assay. Data are from three independent experiments,
performed in triplicate, and depicted as mean ± SEM.

Q: Which results are given for `O=C1NC(c2ccccc2)(c2ccccc2)C(=O)N1COP(=O)(O)O` [Fosphenytoin]?
A: Calcium mobilization response, dose-response replicate data (Fig. 3E and 3F) (MRGPRX4 W158A; concentration 188 pM): -0.1089 and -4.401 and 5.901 and 5.348 and 4.242 and 0.2972 and 7.4308 and 6.093; Calcium mobilization response, dose-response replicate data (Fig. 3E and 3F) (MRGPRX4 W158A; concentration 565 pM): 11.1143 and 3.521 and 5.901 and 8.668 and 4.756 and 4.31 and 5.202; Calcium mobilization response, dose-response replicate data (Fig. 3E and 3F) (MRGPRX4 W158A; concentration 1.69e-9 M): 3.521 and -4.731 and 9.774 and 6.455 and 3.688 and 2.7494 and 7.654 and 7.4308; Calcium mobilization response, dose-response replicate data (Fig. 3E and 3F) (MRGPRX4 W158A; concentration 5.08e-9 M): 5.172 and 2.861 and 4.795 and 8.668 and -0.1486 and 7.4308 and 5.424; Calcium mobilization response, dose-response replicate data (Fig. 3E and 3F) (MRGPRX4 W158A; concentration 1.52e-8 M): 4.5118 and 16.7264 and 4.795 and 9.221 and 4.979 and 11.8893 and 7.208; Calcium mobilization response, dose-response replicate data (Fig. 3E and 3F) (MRGPRX4 W158A; concentration 4.57e-8 M): 4.182 and 9.134 and 6.455 and 5.901 and 1.635 and 8.991 and 6.985; Calcium mobilization response, dose-response replicate data (Fig. 3E and 3F) (MRGPRX4 W158A; concentration 1.37e-7 M): 5.172 and -0.1089 and 13.6468 and 9.221 and 4.795 and 2.081 and 6.985 and 8.1; Calcium mobilization response, dose-response replicate data (Fig. 3E and 3F) (MRGPRX4 W158A; concentration 4.12e-7 M): 0.8804 and 6.493 and 6.455 and 11.4338 and 4.795 and 0.5202 and 6.985; Calcium mobilization response, dose-response replicate data (Fig. 3E and 3F) (MRGPRX4 W158A; concentration 1.23e-6 M): 0.2202 and -3.41 and 6.455 and 3.688 and 5.901 and -0.3715 and 8.3225 and 5.202; Calcium mobilization response, dose-response replicate data (Fig. 3E and 3F) (MRGPRX4 W158A; concentration 3.7e-6 M): -9.352 and -10.6729 and 3.688 and 12.5403 and 5.901 and 3.641 and 4.756 and 8.768; Calcium mobilization response, dose-response replicate data (Fig. 3E and 3F) (MRGPRX4 W158A; concentration 1.11e-5 M): -9.683 and -8.362 and 3.135 and 5.901 and 4.242 and -0.5945 and 8.545 and 5.87; Calcium mobilization response, dose-response replicate data (Fig. 3E and 3F) (MRGPRX4 W158A; concentration 3.33e-5 M): -13.644 and -8.362 and 0.9221 and 7.008 and -1.263 and 7.654 and 5.202; Calcium mobilization response, dose-response replicate data (Fig. 3E and 3F) (MRGPRX4 W158A; concentration 0.0001 M): -17.6055 and -13.9741 and 10.8806 and -2.951 and -0.7377 and -2.155 and 5.647 and 16.5707; Calcium mobilization response, dose-response replicate data (Fig. 3E and 3F) (MRGPRX4 Y254A; concentration 188 pM): 6.613; Calcium mobilization response, dose-response replicate data (Fig. 3E and 3F) (MRGPRX4 Y254A; concentration 1.69e-9 M): 15.5304; Calcium mobilization response, dose-response replicate data (Fig. 3E and 3F) (MRGPRX4 Y254A; concentration 5.08e-9 M): 15.3074; Calcium mobilization response, dose-response replicate data (Fig. 3E and 3F) (MRGPRX4 Y254A; concentration 1.52e-8 M): 18.8742; Calcium mobilization response, dose-response replicate data (Fig. 3E and 3F) (MRGPRX4 Y254A; concentration 4.57e-8 M): 20.2118; Calcium mobilization response, dose-response replicate data (Fig. 3E and 3F) (MRGPRX4 Y254A; concentration 1.37e-7 M): 24.0015 and 19.0972; Calcium mobilization response, dose-response replicate data (Fig. 3E and 3F) (MRGPRX4 Y254A; concentration 4.12e-7 M): 12.6324 and 22.2181; Calcium mobilization response, dose-response replicate data (Fig. 3E and 3F) (MRGPRX4 Y254A; concentration 1.23e-6 M): 20.8805; Calcium mobilization response, dose-response replicate data (Fig. 3E and 3F) (MRGPRX4 Y254A; concentration 3.7e-6 M): 16.645; Calcium mobilization response, dose-response replicate data (Fig. 3E and 3F) (MRGPRX4 Y254A; concentration 1.11e-5 M): 18.2055; Calcium mobilization response, dose-response replicate data (Fig. 3E and 3F) (MRGPRX4 Y254A; concentration 3.33e-5 M): 11.2948; Calcium mobilization response, dose-response replicate data (Fig. 3E and 3F) (MRGPRX4 Y254A; concentration 0.0001 M): 7.282; fig. S7 response (raw signal), concentration-response (MRGPRX4 S83L (L83); 3.91e-6 M): 16189.8 and 18368.9 and 14754.9 and 7940.14 and 9488.78 and 17786.7 and 16725.6 and 16301.1; fig. S7 response (raw signal), concentration-response (MRGPRX4 S83L (L83); 7.81e-6 M): 31267.6 and 23364.7 and 9967.06 and 14972.3 and 21528.8 and 27388.6 and 23521.5 and 22191.5; fig. S7 response (raw signal), concentration-response (MRGPRX4 S83L (L83); 1.56e-5 M): 54620.8 and 55257.1 and 68081.9 and 18104.1 and 21454.6 and 13510.6 and 39603.3 and 42888 and 40258.8; fig. S7 response (raw signal), concentration-response (MRGPRX4 S83L (L83); 3.13e-5 M): 198387 and 180205 and 220454 and 39021.7 and 31915.3 and 32986.9 and 96507.5 and 89824.8 and 100978; fig. S7 response (raw signal), concentration-response (MRGPRX4 S83L (L83); 6.25e-5 M): 644734 and 659539 and 647956 and 87801.9 and 74073.9 and 87746.9 and 239726 and 229383 and 201212; fig. S7 response (raw signal), concentration-response (MRGPRX4 S83L (L83); 0.00025 M): 2309244 and 2438974 and 2260938 and 524727 and 460757 and 480250 and 1001078 and 966214 and 954440; fig. S7 response (raw signal), concentration-response (MRGPRX4 S83L (L83); 0.0005 M): 3094672 and 3169559 and 2824560 and 915447 and 870388 and 886744 and 1465791 and 1447165 and 1478274; fig. S7 response (raw signal), concentration-response (MRGPRX4 S83L (L83); 0.001 M): 3194927 and 3202975 and 3421887 and 1059050 and 1086825 and 1067548 and 1850734 and 1628158 and 1470142; fig. S7 response (raw signal), concentration-response (MRGPRX4 S83L (L83); 0.002 M): 3749873 and 3571246 and 3372208 and 1358962 and 1203034 and 1504302 and 1686569 and 1838795 and 1612874; fig. S7 response (raw signal), concentration-response (MRGPRX4 S83L (L83); 0.004 M): 2851998 and 2998820 and 3134679 and 1258459 and 1272732 and 1356268 and 1569674 and 1612970 and 1391824
